# From patent US20190154661A1, “METHODS OF IDENTIFYING CFTR MODULATORS” (Proteostasis Therapeutics, Inc., priority 2016, published 2019)
# Protein sequences, listed by entry. Tags and fused reporters are not part of them. Lines headed by an entry give the natural chain unless they say otherwise; changes in a name come on top. Chains listed by the source or under a name are the forms on record and can include a tag or linker.
# UniProt P13569, with tags, fused parts or gaps DEL508-508: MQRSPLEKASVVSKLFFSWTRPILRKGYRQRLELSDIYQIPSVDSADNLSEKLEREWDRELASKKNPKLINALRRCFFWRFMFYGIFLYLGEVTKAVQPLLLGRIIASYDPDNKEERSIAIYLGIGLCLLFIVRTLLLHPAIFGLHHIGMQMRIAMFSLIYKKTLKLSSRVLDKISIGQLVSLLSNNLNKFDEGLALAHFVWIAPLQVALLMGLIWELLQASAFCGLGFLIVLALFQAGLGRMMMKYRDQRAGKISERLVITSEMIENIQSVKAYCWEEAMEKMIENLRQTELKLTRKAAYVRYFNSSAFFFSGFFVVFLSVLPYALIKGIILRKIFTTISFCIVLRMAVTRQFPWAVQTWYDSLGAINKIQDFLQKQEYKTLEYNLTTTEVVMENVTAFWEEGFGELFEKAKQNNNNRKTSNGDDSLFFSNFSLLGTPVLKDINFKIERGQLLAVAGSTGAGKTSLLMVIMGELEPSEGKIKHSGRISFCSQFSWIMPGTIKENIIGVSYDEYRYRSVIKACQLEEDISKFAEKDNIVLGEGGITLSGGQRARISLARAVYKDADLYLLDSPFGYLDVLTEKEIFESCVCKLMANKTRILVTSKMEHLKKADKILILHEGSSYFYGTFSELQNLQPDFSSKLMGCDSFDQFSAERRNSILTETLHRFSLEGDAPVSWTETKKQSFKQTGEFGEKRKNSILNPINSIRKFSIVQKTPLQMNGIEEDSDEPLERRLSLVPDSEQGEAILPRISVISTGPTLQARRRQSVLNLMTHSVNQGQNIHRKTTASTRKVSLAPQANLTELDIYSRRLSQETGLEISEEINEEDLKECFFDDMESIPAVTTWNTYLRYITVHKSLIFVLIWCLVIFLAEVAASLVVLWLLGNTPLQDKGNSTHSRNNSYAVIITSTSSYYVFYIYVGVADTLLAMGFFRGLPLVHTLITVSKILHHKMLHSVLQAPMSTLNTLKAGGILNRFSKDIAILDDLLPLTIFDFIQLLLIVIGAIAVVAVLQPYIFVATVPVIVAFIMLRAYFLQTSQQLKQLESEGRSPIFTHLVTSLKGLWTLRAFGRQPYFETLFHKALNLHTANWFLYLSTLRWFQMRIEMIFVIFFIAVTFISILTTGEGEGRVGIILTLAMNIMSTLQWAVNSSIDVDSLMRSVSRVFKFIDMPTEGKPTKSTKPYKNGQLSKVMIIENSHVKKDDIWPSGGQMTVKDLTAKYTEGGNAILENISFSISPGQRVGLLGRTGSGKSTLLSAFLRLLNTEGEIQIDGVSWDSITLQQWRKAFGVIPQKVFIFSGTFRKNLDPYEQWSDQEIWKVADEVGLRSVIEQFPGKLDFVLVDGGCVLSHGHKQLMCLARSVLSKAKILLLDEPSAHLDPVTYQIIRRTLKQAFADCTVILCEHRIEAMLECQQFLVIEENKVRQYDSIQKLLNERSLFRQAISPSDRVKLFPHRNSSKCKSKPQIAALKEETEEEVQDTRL
# Some of these results come from one statement about several compounds together.
# Molecular target: T1, ΔF508-CFTR (Homo sapiens, UniProt P13569, DEL508-508)
# T1 construct: expressed in transfected cells; host or cells: CFBE (cystic fibrosis bronchial epithelial) cells, also expressing hsYFP
# Assay: hsYFP quenching assay of ΔF508-CFTR activity in CFBE cells in the presence of a CFTR amplifier
# Format: cell-based
# Settings: CFBE cells overexpressing ΔF508-CFTR and hsYFP; 24 hour incubation with test compound and amplifier compound; forskolin and potentiator for one hour
row,Compound,ΔF508-CFTR activity (rate of sodium iodide transport observed by hsYFP signal quenching) relative to the positive control compound
1,Cc1c(-c2cc(C(=O)O)c3cc(Cl)cc(C)c3n2)oc2ccccc12 [6-chloro-8-methyl-2-(3-methylbenzofuran-2-yl)quinoline-4-carboxylic acid],hit (a hit is called for a test compound that shows greater than 25% of the positive control compound)
2,COc1cc(C)c2nc(-c3oc4ccccc4c3C)cc(C(=O)O)c2c1 [6-methoxy-8-methyl-2-(3-methyl-1-benzofuran-2-yl)quinoline-4-carboxylic acid],hit (a hit is called for a test compound that shows greater than 25% of the positive control compound)
3,"Cc1c(-c2cc(C(=O)O)c3c(C)ccc(C)c3n2)oc2ccccc12 [5,8-dimethyl-2-(3-methyl-1-benzofuran-2-yl)quinoline-4-carboxylic acid]",hit (a hit is called for a test compound that shows greater than 25% of the positive control compound)
4,Cc1ccc(OCc2ccccc2)c2c(C(=O)O)cc(-c3cc4ccccc4o3)nc12 [2-(1-benzofuran-2-yl)-5-(benzyloxy)-8-methylquinoline-4-carboxylic acid],hit (a hit is called for a test compound that shows greater than 25% of the positive control compound)
5,"Cc1cc(C)c2nc(-c3oc4ccccc4c3C)cc(C(=O)O)c2c1 [6,8-dimethyl-2-(3-methyl-1-benzofuran-2-yl)quinoline-4-carboxylic acid]",hit (a hit is called for a test compound that shows greater than 25% of the positive control compound)
6,CCc1cc(C)c2nc(-c3oc4ccccc4c3C)cc(C(=O)O)c2c1 [6-ethyl-8-methyl-2-(3-methyl-1-benzofuran-2-yl)quinoline-4-carboxylic acid],hit (a hit is called for a test compound that shows greater than 25% of the positive control compound)
7,Cc1c(-c2cc(C(=O)O)c3cc(F)cc(C)c3n2)oc2ccccc12 [6-fluoro-8-methyl-2-(3-methylbenzofuran-2-yl)quinoline-4-carboxylic acid],hit (a hit is called for a test compound that shows greater than 25% of the positive control compound)
8,Cc1c(-c2cc(C(=O)O)c3cc(C(F)(F)F)cc(C)c3n2)oc2ccccc12 [8-methyl-2-(3-methyl-1-benzofuran-2-yl)-6-(trifluoromethyl)quinoline-4-carboxylic acid],hit (a hit is called for a test compound that shows greater than 25% of the positive control compound)
9,Cc1c(-c2cc(C(=O)O)c3cc(OCc4ccccc4)cc(C)c3n2)oc2ccccc12 [6-(benzyloxy)-8-methyl-2-(3-methyl-1-benzofuran-2-yl)quinoline-4-carboxylic acid],hit (a hit is called for a test compound that shows greater than 25% of the positive control compound)
10,Cc1c(-c2cc(C(=O)O)c3cc(Br)cc(C)c3n2)oc2ccccc12 [6-bromo-8-methyl-2-(3-methyl-1-benzofuran-2-yl)quinoline-4-carboxylic acid],hit (a hit is called for a test compound that shows greater than 25% of the positive control compound)
